From article PMC12849889
Results are given in words; binding and its absence hold for the method and conditions named. Binding seen in cells or lysates may run through a third protein. Some binding calls cover weakened binding; strength is not graded here. Where a sequence is shown, tags or fusion partners need not be part of it.

What was measured:
[1] = target: T1, GCN5-2×FLAG-2×HA (Ubipro::GCN5-2×FlAG-2×HA transgenic rice) (rice (Oryza sativa)) (UniProt Q338B9); assay: co-IP; 14-day-old seedlings of GCN5-2×FLAG-2×HA transgenic or wild-type rice; RIPA buffer; anti-FLAG M2 magnetic beads overnight at 4 °C; blots with anti-HA, anti-ACLA2, anti-ADA2
T1 sequence: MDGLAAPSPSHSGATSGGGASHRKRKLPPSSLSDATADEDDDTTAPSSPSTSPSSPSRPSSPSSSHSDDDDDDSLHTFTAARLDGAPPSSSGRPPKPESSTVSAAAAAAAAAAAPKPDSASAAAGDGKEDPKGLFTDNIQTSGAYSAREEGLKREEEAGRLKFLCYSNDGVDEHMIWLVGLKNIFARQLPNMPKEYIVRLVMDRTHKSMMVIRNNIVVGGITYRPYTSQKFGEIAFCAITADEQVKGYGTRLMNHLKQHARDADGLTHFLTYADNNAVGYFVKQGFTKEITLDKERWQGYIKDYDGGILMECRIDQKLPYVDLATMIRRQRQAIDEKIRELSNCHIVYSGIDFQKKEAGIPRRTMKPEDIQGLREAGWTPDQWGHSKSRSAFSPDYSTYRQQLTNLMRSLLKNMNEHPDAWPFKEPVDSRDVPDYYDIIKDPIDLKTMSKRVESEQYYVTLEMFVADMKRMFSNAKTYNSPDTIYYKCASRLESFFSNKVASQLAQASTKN

[2] = target: T2, GCN5-NLuc (rice (Oryza sativa)) (UniProt Q338B9); assay: split reporter; split-luciferase complementation (NLuc/CLuc of firefly luciferase) in Nicotiana benthamiana leaves, 48 h after infiltration, 1 mM luciferin
T2 sequence: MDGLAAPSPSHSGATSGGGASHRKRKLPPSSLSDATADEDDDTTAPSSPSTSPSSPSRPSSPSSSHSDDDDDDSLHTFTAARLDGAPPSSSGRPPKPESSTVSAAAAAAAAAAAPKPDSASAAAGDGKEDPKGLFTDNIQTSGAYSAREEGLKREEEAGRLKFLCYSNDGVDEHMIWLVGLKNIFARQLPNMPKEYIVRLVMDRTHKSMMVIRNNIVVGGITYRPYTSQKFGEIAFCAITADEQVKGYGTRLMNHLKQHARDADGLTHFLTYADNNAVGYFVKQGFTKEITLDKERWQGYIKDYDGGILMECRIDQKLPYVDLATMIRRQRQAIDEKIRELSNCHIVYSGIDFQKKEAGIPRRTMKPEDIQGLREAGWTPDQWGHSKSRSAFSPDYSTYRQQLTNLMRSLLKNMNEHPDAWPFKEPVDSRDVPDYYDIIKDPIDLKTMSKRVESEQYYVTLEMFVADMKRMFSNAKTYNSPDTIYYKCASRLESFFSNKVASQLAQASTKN

Row | Binder | binding [1] | binding [2]
1 | ADA2, endogenous in rice seedlings (protein, UniProt Q75LL6 1-567) MGRSRGVPNSGDDETNHRSKRRRVASSGDAPDSLSAACGGAGEGGGKKALYHCNYCNKDISGKIRIKCSKCPDFDLCVECFSVGAEVTPHRSNHPYRVMDNLSFPLICPDWNADEEILLLEGIEMYGLGNWAEVAEHVGTKTKAQCIDHYTTAYMNSPCYPLPDMSHVNGKNRKELLAMAKVQGESKKVLPGDLTPKDESPFSPPRVKVEDALGEGLAGRSPSHIAGGANKKASNVGQFKDGANVAKVEDGHVDRSIGVKKPRYSADEGPSLTELSGYNSKRHEFDPEYDNDAEQALAEMEFKETDSETDRELKLRVLRIYLSRLDERKRRKEFILERNLLFPNPLEKDLTNEDKEVYHRYKVFMRFLSKEEHEALVRSVLEERKIRRRIQELQECRSAGCRTLAEAKIHIEQKRKKEHEVNAQKAKESGQLLSNTKVVHKTNRPMKIESDGNLDQKKGGASLDSTGRDSPKTTGHAGTKHWDDWDIVGFPGAELLSTSEKNLCCQNRLLPNHYLKMQEVLMQEIFKGSVAKKEDAHVLFKVDPAKVDNVYDMVTKKLGTNEEAPTV | binds | –
2 | CLuc-ADA2 (protein, UniProt Q75LL6 1-567) MGRSRGVPNSGDDETNHRSKRRRVASSGDAPDSLSAACGGAGEGGGKKALYHCNYCNKDISGKIRIKCSKCPDFDLCVECFSVGAEVTPHRSNHPYRVMDNLSFPLICPDWNADEEILLLEGIEMYGLGNWAEVAEHVGTKTKAQCIDHYTTAYMNSPCYPLPDMSHVNGKNRKELLAMAKVQGESKKVLPGDLTPKDESPFSPPRVKVEDALGEGLAGRSPSHIAGGANKKASNVGQFKDGANVAKVEDGHVDRSIGVKKPRYSADEGPSLTELSGYNSKRHEFDPEYDNDAEQALAEMEFKETDSETDRELKLRVLRIYLSRLDERKRRKEFILERNLLFPNPLEKDLTNEDKEVYHRYKVFMRFLSKEEHEALVRSVLEERKIRRRIQELQECRSAGCRTLAEAKIHIEQKRKKEHEVNAQKAKESGQLLSNTKVVHKTNRPMKIESDGNLDQKKGGASLDSTGRDSPKTTGHAGTKHWDDWDIVGFPGAELLSTSEKNLCCQNRLLPNHYLKMQEVLMQEIFKGSVAKKEDAHVLFKVDPAKVDNVYDMVTKKLGTNEEAPTV | – | binds
